Laboratory results: PubChem BioAssay AID1259297 (Sanger Institute, 2017)
Here is an unselected part of 794 reagents tested. In the full data, 13 (1.6%) were called active. 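Calls reflect knock-down without drug only; drug synergy is judged separately, with scores above 0.15 counted as synergy.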 No viability above 1 is reported: the scale is capped. Further read-outs or replicates are left out here. Not given: the amount of reagent, the time to read-out.

- Test: 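siRNA screen across the kinome seeking drug partners in cells of colorectal cancer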 (primary screen)
- Cells: human RCM1 colorectal cancer cell line
- Reagent: siRNA pool against human genes
- Challenge: separate arms: DMSO vehicle, or one anchor drug at a mild dose: BYL719 1 µM, cetuximab 5 µg/ml, trametinib 10 nM
- Measurement: 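Viability per well relative to a non-targeting pool, mean of replicates; robust z-score for knock-down alone; synergy score with BYL719, cetuximab or trametinib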
- Scale: viability z-score, knock-down alone: higher = more viable cells than non-targeting controls; viability, knock-down alone (DMSO): higher = more viable cells
- Units: viability, knock-down alone (DMSO) in fraction of control
- Hit rule: 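Essential when the viability robust z-score for knock-down alone is below -3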
- Calls: active = essential when knocked down alone; inactive = no clear loss of viability alone

SRC (GeneID 6714)
- viability z-score, knock-down alone: 0.513
- viability, knock-down alone (DMSO): 0.964
- Outcome: inactive

STK31 (GeneID 56164)
- viability z-score, knock-down alone: 0.33
- viability, knock-down alone (DMSO): 0.947
- Outcome: inactive

NEK4 (GeneID 6787)
- viability z-score, knock-down alone: 0.9
- viability, knock-down alone (DMSO): 1
- Outcome: inactive

HK2 (GeneID 3099)
- viability z-score, knock-down alone: -2.11
- viability, knock-down alone (DMSO): 0.721
- Outcome: inactive

CEP290 (GeneID 80184)
- viability z-score, knock-down alone: 0.151
- viability, knock-down alone (DMSO): 0.93
- Outcome: inactive

MAGI3 (GeneID 260425)
- viability z-score, knock-down alone: -1.04
- viability, knock-down alone (DMSO): 0.82
- Outcome: inactive

ANKK1 (GeneID 255239)
- viability z-score, knock-down alone: 0.9
- viability, knock-down alone (DMSO): 1
- Outcome: inactive

RNASEL (GeneID 6041)
- viability z-score, knock-down alone: 0.417
- viability, knock-down alone (DMSO): 0.955
- Outcome: inactive

LCK (GeneID 3932)
- viability z-score, knock-down alone: 0.0384
- viability, knock-down alone (DMSO): 0.92
- Outcome: inactive

KCNH2 (GeneID 3757)
- viability z-score, knock-down alone: -0.236
- viability, knock-down alone (DMSO): 0.895
- Outcome: inactive

PBK (GeneID 55872)
- viability z-score, knock-down alone: 0.85
- viability, knock-down alone (DMSO): 0.995
- Outcome: inactive

CDK9 (GeneID 1025)
- viability z-score, knock-down alone: 0.79
- viability, knock-down alone (DMSO): 0.99
- Outcome: inactive

2 of these entries, set out differently:
{"Target gene": "RNASEL (GeneID 6041)", "viability z-score, knock-down alone": 0.417, "viability, knock-down alone (DMSO)": 0.955, "Outcome": "inactive"}
{"Target gene": "LCK (GeneID 3932)", "viability z-score, knock-down alone": 0.0384, "viability, knock-down alone (DMSO)": 0.92, "Outcome": "inactive"}
